Results are given in words; binding and its absence hold for the method and conditions named. In cells and extracts the contact can be indirect. Some binding calls cover weakened binding; strength is not graded here. For some assays here: Sequences can lack the tags named with a protein.

Protein sequences, listed by entry. Tags and fused reporters are not part of them.
UniProt Q24117: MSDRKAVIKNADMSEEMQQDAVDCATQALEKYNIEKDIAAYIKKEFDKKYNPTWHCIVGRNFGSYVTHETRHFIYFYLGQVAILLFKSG

Assay [1] deals with LC8-GFP (full length LC8 fused to GFP) (UniProt Q24117). In words: co-IP.
The target in assay [2] is T1, DIC-GFP (DIC LC8-binding peptide fused to GFP).
T1 sequence: IVTYTKETQTP
The assay can be described thus: co-IP.

Turning to “endogenous dynein light chain 8 (LC8) (from UniProt Q24117 1-89)”, the binding entry in assay [1] and in assay [2] was “binds” in each case.

These data come from publication PMC3861458.
